Numbering of substitutions follows the chain as printed. Names may count otherwise. These are yes or no findings as the source states them, for the method shown. Binding seen in cells or lysates may run through a third protein. Some entries that bind do so weakly or less than the wild type. For part of these data: Sequences can lack the tags named with a protein.

The target of assay [1] is T1, Caspase-4 (human (endogenous in HUVECs)) (UniProt P49662).
T1 sequence: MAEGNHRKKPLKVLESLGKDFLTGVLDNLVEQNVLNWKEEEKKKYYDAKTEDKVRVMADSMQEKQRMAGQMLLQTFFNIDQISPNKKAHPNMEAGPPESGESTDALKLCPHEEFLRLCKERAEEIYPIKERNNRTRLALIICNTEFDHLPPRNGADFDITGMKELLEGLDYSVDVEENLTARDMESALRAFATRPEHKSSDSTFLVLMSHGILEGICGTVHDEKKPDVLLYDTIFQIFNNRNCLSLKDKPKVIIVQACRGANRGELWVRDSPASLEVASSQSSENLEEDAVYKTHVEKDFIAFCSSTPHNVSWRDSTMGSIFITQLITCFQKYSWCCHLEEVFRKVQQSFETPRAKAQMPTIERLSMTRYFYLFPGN
Put plainly: co-IP; HUVEC lysates, cells untreated or stimulated with LPS, with or without TMG pretreatment; IP with anti-caspase-4 antibody and Protein A/G agarose overnight at 4 °C; blot with anti-GSDMD.

Assay [2] addresses T2, Caspase-4 (human (endogenous in HEK293T)) (UniProt P49662).
T2 sequence: T1 sequence
Put plainly: co-IP; 293T cells overexpressing GSDMD or GSDMD S338A, untreated or stimulated with LPS, with or without TMG; IP with anti-Caspase-4 antibody; blot with anti-GSDMD.

B1: Gasdermin-D (protein, UniProt P57764 1-484)
chain: MGSAFERVVRRVVQELDHGGEFIPVTSLQSSTGFQPYCLVVRKPSSSWFWKPRYKCVNLSIKDILEPDAAEPDVQRGRSFHFYDAMDGQIQGSVELAAPGQAKIAGGAAVSDSSSTSMNVYSLSVDPNTWQTLLHERHLRQPEHKVLQQLRSRGDNVYVVTEVLQTQKEVEVTRTHKREGSGRFSLPGATCLQGEGQGHLSQKKTVTIPSGSTLAFRVAQLVIDSDLDVLLFPDKKQRTFQPPATGHKRSTSEGAWPQLPSGLSMMRCLHNFLTDGVPAEGAFTEDFQGLRAEVETISKELELLDRELCQLLLEGLEGVLRDQLALRALEEALEQGQSLGPVEPLDGPAGAVLECLVLSSGMLVPELAIPVVYLLGALTMLSETQHKLLAEALESQTLLGPLELVGSLLEQSAPWQERSTMSLPPGLLGNSWGEGAPAWVLLDECGLELGEDTPHVCWEPQAQGRMCALYASLALLSGLSQEPH
As for B1, the binding entry in assay [1] is “binds”.

B2: FLAG-tagged human GSDMD (S338A) (protein, UniProt P57764 1-484)
chain: B1 chain with S338A
For the molecule B2, the binding entry in assay [2] was “binds”.

B3: FLAG-tagged GSDMD (protein, UniProt P57764 1-484)
chain: B1 chain
With B3, the binding result in assay [2] is on record as “binds”.

For the origin of these results see paper PMC10776498.
